For assay [1], the target named is T1, Ubiquitin carboxyl-terminal hydrolase 15 (USP15), endogenous (human (endogenous in breast cancer cells)) (UniProt Q9Y4E8).
T1 sequence: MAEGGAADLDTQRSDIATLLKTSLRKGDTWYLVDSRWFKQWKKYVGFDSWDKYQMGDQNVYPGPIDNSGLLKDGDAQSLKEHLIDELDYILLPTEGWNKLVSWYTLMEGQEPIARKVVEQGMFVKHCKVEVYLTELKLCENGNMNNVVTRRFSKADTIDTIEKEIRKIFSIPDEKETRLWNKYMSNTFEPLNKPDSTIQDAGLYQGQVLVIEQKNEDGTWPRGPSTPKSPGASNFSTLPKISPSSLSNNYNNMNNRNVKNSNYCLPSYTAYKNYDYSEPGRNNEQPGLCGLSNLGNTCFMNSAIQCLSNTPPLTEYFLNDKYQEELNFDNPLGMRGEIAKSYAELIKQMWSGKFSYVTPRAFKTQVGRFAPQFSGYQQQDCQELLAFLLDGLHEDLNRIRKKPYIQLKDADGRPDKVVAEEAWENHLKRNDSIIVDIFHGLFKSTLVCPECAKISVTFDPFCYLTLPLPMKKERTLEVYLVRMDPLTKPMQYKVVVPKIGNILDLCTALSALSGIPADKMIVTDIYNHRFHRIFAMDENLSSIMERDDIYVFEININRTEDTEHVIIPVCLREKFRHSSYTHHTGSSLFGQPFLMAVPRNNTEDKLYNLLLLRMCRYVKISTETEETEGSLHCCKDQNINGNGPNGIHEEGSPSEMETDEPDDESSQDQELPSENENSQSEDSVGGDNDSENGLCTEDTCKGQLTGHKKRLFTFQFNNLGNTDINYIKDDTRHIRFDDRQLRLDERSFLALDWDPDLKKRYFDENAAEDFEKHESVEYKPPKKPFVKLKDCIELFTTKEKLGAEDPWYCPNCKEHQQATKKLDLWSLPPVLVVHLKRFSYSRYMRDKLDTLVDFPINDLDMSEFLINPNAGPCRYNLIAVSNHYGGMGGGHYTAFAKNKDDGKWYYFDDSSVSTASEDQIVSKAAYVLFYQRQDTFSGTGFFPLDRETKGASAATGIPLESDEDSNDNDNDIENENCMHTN
Description: co-IP; proteins extracted from breast cancer cells; immunoprecipitated with anti-ERα or anti-USP15, immunoblot for USP15 or ERα; endogenous proteins.

Chains of the proteins cited; added tags and fusions are not shown.
UniProt P03372: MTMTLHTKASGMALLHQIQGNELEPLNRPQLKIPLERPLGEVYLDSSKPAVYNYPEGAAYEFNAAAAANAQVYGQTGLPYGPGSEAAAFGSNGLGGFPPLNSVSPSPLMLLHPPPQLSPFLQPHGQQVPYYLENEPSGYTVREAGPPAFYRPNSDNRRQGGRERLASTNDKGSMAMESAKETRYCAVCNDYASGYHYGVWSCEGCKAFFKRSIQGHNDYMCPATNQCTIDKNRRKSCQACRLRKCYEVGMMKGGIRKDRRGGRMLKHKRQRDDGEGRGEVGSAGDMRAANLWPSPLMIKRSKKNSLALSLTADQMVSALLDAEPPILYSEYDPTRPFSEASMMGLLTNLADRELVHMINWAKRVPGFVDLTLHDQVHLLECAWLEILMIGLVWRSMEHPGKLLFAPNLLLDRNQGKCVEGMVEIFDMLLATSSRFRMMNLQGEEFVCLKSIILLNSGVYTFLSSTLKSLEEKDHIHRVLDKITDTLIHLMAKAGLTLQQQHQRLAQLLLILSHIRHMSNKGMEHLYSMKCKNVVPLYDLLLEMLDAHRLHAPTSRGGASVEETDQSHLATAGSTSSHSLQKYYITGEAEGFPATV

The target of assay [2] is estrogen receptor α (ERα), endogenous (human (endogenous in breast cancer cells)) (UniProt P03372). Described as above.
A further assay deals with FLAG-tagged ERα (UniProt P03372). Description: co-IP; HEK293T cells transfected with FLAG-tagged ERα and MYC-tagged USP15; co-IP and western blot for MYC and FLAG.

These are yes or no findings as the source states them, for the method shown. Binding seen in cells or lysates may run through a third protein. Some entries that bind do so weakly or less than the wild type. For part of these data: Tags and fused reporters may be left off the sequences shown.

“estrogen receptor α (ERα), endogenous (from UniProt P03372 1-595)”: the binding entry in assay [1] is “binds”.

B1: Ubiquitin carboxyl-terminal hydrolase 15 (USP15), endogenous (enzyme, UniProt Q9Y4E8 1-981)
chain: T1 sequence
For the molecule B1, the binding result in assay [2] is recorded as “binds”.

B2: MYC-tagged USP15 (enzyme, UniProt Q9Y4E8-2 1-952)
chain: MAEGGAADLDTQRSDIATLLKTSLRKGDTWYLVDSRWFKQWKKYVGFDSWDKYQMGDQNVYPGPIDNSGLLKDGDAQSLKEHLIDELDYILLPTEGWNKLVSWYTLMEGQEPIARKVVEQGMFVKHCKVEVYLTELKLCENGNMNNVVTRRFSKADTIDTIEKEIRKIFSIPDEKETRLWNKYMSNTFEPLNKPDSTIQDAGLYQGQVLVIEQKNEDGTWPRGPSTPNVKNSNYCLPSYTAYKNYDYSEPGRNNEQPGLCGLSNLGNTCFMNSAIQCLSNTPPLTEYFLNDKYQEELNFDNPLGMRGEIAKSYAELIKQMWSGKFSYVTPRAFKTQVGRFAPQFSGYQQQDCQELLAFLLDGLHEDLNRIRKKPYIQLKDADGRPDKVVAEEAWENHLKRNDSIIVDIFHGLFKSTLVCPECAKISVTFDPFCYLTLPLPMKKERTLEVYLVRMDPLTKPMQYKVVVPKIGNILDLCTALSALSGIPADKMIVTDIYNHRFHRIFAMDENLSSIMERDDIYVFEININRTEDTEHVIIPVCLREKFRHSSYTHHTGSSLFGQPFLMAVPRNNTEDKLYNLLLLRMCRYVKISTETEETEGSLHCCKDQNINGNGPNGIHEEGSPSEMETDEPDDESSQDQELPSENENSQSEDSVGGDNDSENGLCTEDTCKGQLTGHKKRLFTFQFNNLGNTDINYIKDDTRHIRFDDRQLRLDERSFLALDWDPDLKKRYFDENAAEDFEKHESVEYKPPKKPFVKLKDCIELFTTKEKLGAEDPWYCPNCKEHQQATKKLDLWSLPPVLVVHLKRFSYSRYMRDKLDTLVDFPINDLDMSEFLINPNAGPCRYNLIAVSNHYGGMGGGHYTAFAKNKDDGKWYYFDDSSVSTASEDQIVSKAAYVLFYQRQDTFSGTGFFPLDRETKGASAATGIPLESDEDSNDNDNDIENENCMHTN
For the molecule B2, the binding result with FLAG-tagged ERα is given as “binds”.

(Values after PMC7997968.)
